# This is one part of the list. Shown are side measurements of this screen, not its main read-out; they come without a call. Most of these compounds were active or inconclusive in the main read-out, so they are no random draw. The note in brackets gives the kind of curve behind each potency; many fits are weak.
# Assay: qHTS Assay to Find Inhibitors of Chronic Active B-Cell Receptor Signaling
# Conditions: ABC-DLBCL IkBa-CBG/CBR reporter, luminescence ratio (green luciferase fused to IkBa over red control in TMD8 lymphoma cells), 4 h
# Outline: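 Compounds up to 46 uM were incubated four hours with TMD8 cells whose green CBG68 luciferase is fused to IkappaBalpha; red CBR luminescence normalised the signal, and concentration-effect curves were fitted to fusion, red and ratio data.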
# [1] = measured here: CBR red luminescence, cell number
# [2] = measured here: IkBa-CBG green luminescence
SMILES,AC50 [1],AC50 [2]
O=C(CCc1nc2ccccc2c(=O)[nH]1)Nc1ccc(F)c([N+](=O)[O-])c1,"15.8 µM [falling, partial curve, poor fit]",–
O=S1(=O)CCC(=Nc2ccc(Cl)cc2)c2ccsc21,"22.4 µM [rising, single point]",–
Cc1oc(-c2ccc(-c3ccccc3)cc2)nc1CN1CCN(CC(=O)N(C)C)CC1,"2.82 µM [falling, full curve, poor fit]",–
CC(C)c1cc2cc3ccc(=O)oc3cc2o1,"2.82 µM [rising, full curve]",–
COc1ccc2[nH]c3c(=O)n(/N=C/c4ccc(OC)c(CN5CCCC5)c4)c(C)nc3c2c1,"1.78 µM [falling, partial curve, poor fit]",–
O=C(Nc1nnc(-c2ccccn2)o1)c1cccc(Br)c1,"16.4 µM [falling, partial curve]",–
Nn1c(SCC(=O)Nc2ccc(N3CCOCC3)cc2)nnc1-c1cccc(F)c1,"2.59 µM [rising, full curve]",–
COc1ccc(C(=O)NN/C(=N/S(=O)(=O)c2ccc(C)cc2)c2ccccc2)cc1,"8.91 µM [falling, partial curve, poor fit]",–
COc1ccc(C(=O)NCC(=O)OCC(=O)Nc2ncc(Cl)cc2Cl)cc1[N+](=O)[O-],"29.1 µM [rising, single point]",–
CCc1ccccc1NC(=O)C/C(C)=N/NC(=O)COc1ccccc1C,"35.5 µM [falling, partial curve, poor fit]",–
COc1ccc(Cl)cc1N(CC(=O)Nc1cccc(SC)c1)S(C)(=O)=O,"29.1 µM [falling, single point]",–
Cc1nc([N+](=O)[O-])c(Sc2nc3ccc([N+](=O)[O-])cc3[nH]2)n1Cc1ccccc1,"9.2 µM [falling, partial curve]",–
O=C(Nc1ccccc1)c1cnc2ccccc2n1,"13 µM [falling, single point]",–
CC(C)(CC(=O)O)Cc1nc(-c2ccc(Cl)cc2)no1,"9.2 µM [falling, partial curve]",–
Cc1ccnc(NC(=O)c2ccccc2[N+](=O)[O-])c1,"11.2 µM [falling, single point]",–
C[C@@H]1C(=O)N(c2ccccc2)[C@@H]1c1ccncc1,"29.1 µM [rising, single point]",–
COc1cc(C(=O)NC(=S)Nc2ccccc2N2CCCC2)cc(OC)c1OC,"7.94 µM [falling, partial curve]",–
C/C(CC(=O)Nc1cccc(C(F)(F)F)c1)=N/NC(=O)C(=O)NCCO,"35.5 µM [falling, single point]",–
CCC(C)Sc1nc2c(cnn2-c2ccc(C)cc2)c(=O)[nH]1 (configuration not stated),"0.651 µM [rising, full curve, poor fit]",–

SMILES,AC50 [1],AC50 [2]
C[C@@]12C(=O)Nc3ccc(Br)cc3C(=O)N1[C@H]1c3cc(Br)ccc3OC[C@@H]1[C@@H]2c1ccccc1,"0.731 µM [falling, partial curve, poor fit]",–
Cc1ccc(N(C)S(=O)(=O)c2ccc(-c3cnc(C4CC4)o3)cc2)cc1,"3.98 µM [rising, full curve]","10 µM [falling, partial curve]"
C#CCOCCOCCOCCNc1nc(N2CCN(C(=O)CCCCCCCCCCNC(=O)[C@H](CCCCN)n3cc(CCO)nn3)CC2)nc(N2CCN(C(=O)CCCCCCCCCCNC(=O)[C@H](CCCCN)n3cc(CCCC(=O)O)nn3)CC2)n1,"11.6 µM [rising, partial curve]",–
CCCCNC(=S)N1CCN(C(c2ccccc2)c2ccccc2)CC1,"3.55 µM [falling, full curve]",–
Cc1cnc(C(=O)Nc2nccs2)cn1,"11.2 µM [falling, partial curve, poor fit]",–
Cc1cccc(C(=O)c2cnc3ccccc3c2-c2ccccc2)c1,"16.4 µM [falling, partial curve, poor fit]",–
CCOC(=O)N1CCC(Nc2c(NCCCN(C)Cc3ccccc3)c(=O)c2=O)CC1,"16.4 µM [rising, partial curve, poor fit]",–
COc1cc(C2C(C#N)=C(C)NC3=C2C(=O)c2ccccc23)cc(OC)c1OC (configuration not stated),"1.3 µM [rising, full curve]","1.16 µM [falling, full curve]"
COc1cc(/C=N/OCC(=O)NC2CCCCC2C)ccc1OCc1ccc(Cl)cc1 (configuration not stated),"2.06 µM [rising, partial curve, poor fit]",–
CCNc1ccc2noc3c2c1C(=O)c1ccccc1-3,"0.13 µM [falling, full curve]",–
CC1CC2(CCCCC2)N2C(=O)C(=O)c3cccc1c32 (configuration not stated),"11.2 µM [rising, single point]",–
CCOc1ccc2[nH]c(C(=O)N/N=C/c3ccc(OC)cc3)cc2c1,"7.08 µM [rising, full curve]","10 µM [falling, partial curve]"
CCCOc1ccc(Cn2c(=O)oc3ccc(C)cc32)cc1,"35.5 µM [rising, single point]",–
Cc1ccc2c(CN3CCN(Cc4ccc5c(c4)OCO5)CC3)cc(=O)oc2c1C,"6.51 µM [rising, single point]",–
O=C1N/C(=N/N=C/c2ccccc2O)SC1Cc1ccc(F)cc1 (configuration not stated),"4.47 µM [falling, partial curve, poor fit]","2.82 µM [falling, full curve]"
COC(=O)C1=NN(C(=O)c2cccc(Br)c2)C(O)(c2ccc(Cl)cc2)C1 (configuration not stated),"8.91 µM [falling, partial curve]",–
COCCn1c(=S)[nH]c2cc(C(=O)N3CCc4ccccc4C3)ccc2c1=O,"3.55 µM [falling, partial curve, poor fit]",–
O=C(NC(=S)Nc1ccc(S(=O)(=O)Nc2nccs2)cc1)c1ccccc1,"11.6 µM [falling, partial curve]",–
CCCC(C(=O)NCc1ccco1)N(C(=O)CNS(=O)(=O)c1ccccc1)c1ccccc1OC (configuration not stated),"2.91 µM [falling, full curve, poor fit]",–

# Random excerpt: two entries already listed
SMILES,AC50 [1],AC50 [2]
COc1ccc2[nH]c3c(=O)n(/N=C/c4ccc(OC)c(CN5CCCC5)c4)c(C)nc3c2c1,"1.78 µM [falling, partial curve, poor fit]",–
O=C(CCc1nc2ccccc2c(=O)[nH]1)Nc1ccc(F)c([N+](=O)[O-])c1,"15.8 µM [falling, partial curve, poor fit]",–

# — PubChem BioAssay AID493014 (National Center for Advancing Translational Sciences (NCATS), 2011)
